Literature values as cited in patent US20100113605A1 (priority 2007, published 2010).
Read-outs that look alike come from different tables or passages of the source. At least one compound was matched to its structure with a doubt left.

Key:
rat striatal slices = settings: mean ± SEM (n ≧ 4), NS = not significantly different from basal [^3H]dopamine overflow
[1] = tested on: extraneuronal dopamine in the nucleus accumbens; settings: cocaine 15 mg/kg i.p.; tetrodotoxin 1×10^−6M
[2] = tested on: electrically-evoked levels of extracellular dopamine in the nucleus accumbens
[3] = in vivo

| Structure (SMILES) | Percentage increase in [^3H]dopamine release (rat striatal slices; 10^−5M) [%] | Percentage increase in [^3H]dopamine release (rat striatal slices; 10^−5M, listed as cocaine) | Percentage increase in [^3H]dopamine release (rat striatal slices; 10^−7M) | effect of tetrodotoxin in the dialysate on the drug-evoked increase in extraneuronal dopamine [1] | peak extraneuronal dopamine concentrations in the nucleus accumbens, electrically evoked ([2]; 40 mg/kg ip, all stimulus frequencies) | Effect on DA reuptake rate ([2]; electrically-stimulated, fast cyclic voltammetry screen in vivo) | Effect on DA release rate ([2]; electrically-stimulated, fast cyclic voltammetry screen in vivo, cell continues 'larger peak efflux') | Euphoriant/psychostimulant [3] |
| --- | --- | --- | --- | --- | --- | --- | --- | --- |
| COC(=O)[C@H]1[C@@H](OC(=O)c2ccccc2)C[C@@H]2CC[C@H]1N2C [Cocaine, cocaine] | 54 ± 19 | statistically significant increase | no stimulation | prevented | large increases in the peak concentrations | None | Increased, | Yes |
| CC(N)Cc1ccc2c(c1)OCO2 (stereo not drawn) [MDA, methylenedioxyamphetamine] |  |  |  |  |  |  |  | Yes |
